This note sets out measurements from article PMC9736777, “Expression and Characterization of Monomeric Recombinant Isocitrate Dehydrogenases from Corynebacterium glutamicum and Azotobacter vinelandii for NADPH Regeneration” (International Journal of Molecular Sciences, 2022).

Results are given in words; binding and its absence hold for the method and conditions named.

The assay deals with isocitrate dehydrogenase from Corynebacterium glutamicum (Corynebacterium glutamicum) (UniProt P50216). The assay is described as follows: SEC; analytical SEC, Superdex 200 Increase 10/300 GL, PBS pH 7.4, 75-100 ug purified protein injected, 0.5 mL/min, calibrated with size markers; both purified. For orientation: In gel filtration, larger molecules generally elute earlier.

B1: isocitrate dehydrogenase from Corynebacterium glutamicum (enzyme, UniProt P50216 1-738)
chain: MAKIIWTRTDEAPLLATYSLKPVVEAFAATAGIEVETRDISLAGRILAQFPERLTEDQKVGNALAELGELAKTPEANIIKLPNISASVPQLKAAIKELQDQGYDIPELPDNATTDEEKDILARYNAVKGSAVNPVLREGNSDRRAPIAVKNFVKKFPHRMGEWSADSKTNVATMDANDFRHNEKSIILDAADEVQIKHIAADGTETILKDSLKLLEGEVLDGTVLSAKALDAFLLEQVARAKAEGILFSAHLKATMMKVSDPIIFGHVVRAYFADVFAQYGEQLLAAGLNGENGLAAILSGLESLDNGEEIKAAFEKGLEDGPDLAMVNSARGITNLHVPSDVIVDASMPAMIRTSGHMWNKDDQEQDTLAIIPDSSYAGVYQTVIEDCRKNGAFDPTTMGTVPNVGLMAQKAEEYGSHDKTFRIEADGVVQVVSSNGDVLIEHDVEANDIWRACQVKDAPIQDWVKLAVTRSRLSGMPAVFWLDPERAHDRNLASLVEKYLADHDTEGLDIQILSPVEATQLSIDRIRRGEDTISVTGNVLRDYNTDLFPILELGTSAKMLSVVPLMAGGGLFETGAGGSAPKHVQQVQEENHLRWDSLGEFLALAESFRHELNNNGNTKAGVLADALDKATEKLLNEEKSPSRKVGEIDNRGSHFWLTKFWADELAAQTEDADLAATFAPVAEALNTGAADIDAALLAVQGGATDLGGYYSPNEEKLTNIMRPVAQFNEIVDALKK
In the case of B1, the binding entry is given as “no binding (tested: 75-100 ug injected)”.
